PubChem BioAssay AID504807 | Drosophila RNAi Screening Center – 2011

- Test: 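Knock-downs that turn on a GFP reporter of faulty histone mRNA processing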
- Cells: Drosophila Dmel-2 cells
- Reagent: long dsRNA against Drosophila genes, 250 ng dsRNA per well
- Timing: about 5 days (reporter added on day 3, imaged 2 days later)
- Measurement: 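Per-well images of a GFP reporter, scored by eye from image collages against nearby wells and a U7 snRNA oligo positive control; hits graded weak, medium or strong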
- Hit rule: 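Wells judged by eye for brighter GFP reporter signal, and only dsRNAs whose increase held up on retesting count as hits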
- Meaning of the calls: active = confirmed hit; inactive = not confirmed
This is not the whole library: the list holds selected reagents. 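All listed dsRNAs looked positive in the first pass but only 20 held up on retesting; weak-to-strong grades are not deposited.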 Names joined by + are all predicted targets of the reagent.

no.	gene	call
1	Wdr59	inactive
2	CG1304	inactive
3	CG14565	inactive
4	Nelf-E	active
5	CG34280	inactive
6	CG12783	inactive
7	Bruce	inactive
8	CG33679	inactive
9	CG14190	inactive
10	Cyp312a1	inactive
11	CG2841	inactive
12	dtn	inactive
13	Gyf	active
14	wake	inactive
15	Frl	inactive
16	CG15784	inactive
17	NFAT	inactive
18	CG14088	inactive
19	Dysb	inactive
20	Sirt2	inactive
21	Yeti	active
22	CG32694	inactive
23	zye	inactive
24	CG10911	inactive
25	CG9686	inactive
26	wntD	inactive
27	Kdm3	inactive
28	Ugt37A2	inactive
29	CG14424	inactive
30	CG13071	inactive
31	CG8620	inactive
32	Pnn	inactive
33	Muc30E	inactive
34	Aduk	active
35	Tti1	inactive
36	slow	inactive
37	inc	inactive
38	Stt3B	inactive
39	Pkc98E	inactive
40	conu	inactive
41	fs(1)K10	inactive
42	ORMDL	inactive
43	CG14417	inactive
44	CG3699	inactive
45	PH4alphaEFB	inactive
46	CG34382	inactive
47	Tcs1 + Polr3K	inactive
48	san	inactive
49	trx	inactive
50	CG14739	inactive
51	Dora	inactive
52	Cpr78Ca	inactive
53	CG13443	inactive
54	CG7886	inactive
55	Rack1	active
56	Fer1HCH	inactive
57	Rpt4R	inactive
58	mus81	inactive
59	CstF50	inactive
60	CG15459	inactive
61	CG17300	inactive
62	CG10761	inactive
63	CkIIalpha-i1	active
64	Cad86C	inactive
65	Ae2	inactive
66	Or7a	inactive
67	hppy	inactive
68	Ino80	inactive
69	CG10562	inactive
70	Ddr	inactive
71	CG13699	inactive
72	ATPsynbetaL	inactive
73	UQCR-14L	inactive
74	Klp67A + CG34456	inactive
75	CycG	inactive
76	sti	inactive
77	tws	inactive
78	bon	inactive
79	Obp93a	inactive
80	CG12589	inactive
81	CG14717	inactive
82	MBD-R2	active
83	Rh2	inactive
84	MRG15	inactive
85	Rcd5	active
86	shd	inactive
87	CG10918	inactive
88	Aef1	inactive
89	CG11262	inactive
90	Shab	inactive
91	CG34230	inactive
92	sgg	inactive
93	tld	inactive
94	Ca-alpha1T	inactive
95	CG3726	inactive
96	Rim	inactive
97	ABCB7	inactive
98	Fit1	inactive
99	ND-49L	inactive
100	CG5611	inactive
101	CG13894	inactive
102	Pc	inactive
103	CG34056	inactive
104	CG31454	inactive
105	Rbp6	inactive
106	CG30058 + CG34312 + CG34235	inactive
107	Arp6	inactive
108	LysC (retired record) + LysD	inactive
109	CG17361	active
110	LManV	inactive
111	Alg13	inactive
112	Cpsf100	active
113	Rcd1	inactive
114	Gr64b	inactive
115	AGO2	inactive
116	nuf	inactive
117	CG31743 + CG34313	inactive
118	CG14079	inactive
119	x16	active
120	CG1492	inactive
121	bol	inactive
122	gt	inactive
123	CG14191	inactive
124	CG10041	inactive
125	CG4613	inactive
126	Cadps	inactive
127	Xrp1	inactive
128	mib1	inactive
129	CG10949	inactive
130	CG17048	inactive
131	CG2750	inactive
132	Or85a	inactive
133	FLASH	inactive
134	CG7518	inactive
135	vg	inactive
136	Usp7	inactive
137	asf1	active
138	CG11249	inactive
139	Sym	active
140	CG16775	inactive
141	flw	inactive
142	dsx-c73A	inactive
143	CG7248	inactive
144	His2Av	active
145	bab1	inactive
146	CG13681 (retired record)	inactive
147	CG7639	inactive
148	CG32270 + CG32269	inactive
149	Fis1	inactive
150	CG17721	inactive
151	shep	inactive
152	Phk-3	inactive
153	CG15034	inactive
154	Veneno	active
155	Actbeta	inactive
156	EMC10	inactive
157	Trxr2	inactive

13 neighbouring entries already listed, for reference:
no.	gene	call
72	ATPsynbetaL	inactive
73	UQCR-14L	inactive
74	Klp67A + CG34456	inactive
75	CycG	inactive
76	sti	inactive
77	tws	inactive
78	bon	inactive
79	Obp93a	inactive
80	CG12589	inactive
81	CG14717	inactive
82	MBD-R2	active
83	Rh2	inactive
84	MRG15	inactive
